Laboratory results taken from publication doi:10.1101/2024.03.04.583305.

Chains of the proteins cited; added tags and fusions are not shown. Residues count along the entry.
UniProt P01106, 365-454 E425T/E432I/R438Q/R439N: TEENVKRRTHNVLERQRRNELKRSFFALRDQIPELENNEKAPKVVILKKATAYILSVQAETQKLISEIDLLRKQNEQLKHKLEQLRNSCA

Target: Omomyc E425T,E432I,R438Q,R439N (UniProt P01106)
Assay: EMSA
Details: 2 mM Mg2+

Question: With “ACCCCACCACGTGGTGCCT (double strand) [E-Box DNA]” as the sequence, how does the Kd read?
Answer: Its Kd is 25 nM.

The exact form of at least one protein or probe is not confirmed.
